Data source: PubChem BioAssay AID1259302 (Sanger Institute, 2017)

Test: 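Retest in SW1116 cells of candidate synthetic-lethal pairs of kinase and drug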 (follow-up of hits)
System: human SW1116 colorectal cancer cells
Reagents: single siRNA against human genes
Conditions: anchor drugs BYL719 at 1 µM, cetuximab at 5 µg/ml or trametinib at 10 nM, each compared with DMSO vehicle; exposure time not given
Detection: 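Mean replicate viability as a ratio to pooled non-targeting control siRNA, plus per-drug synergy scores comparing siRNA with drug against each given on its own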
Direction: synergy score with trametinib and synergy score with BYL719 and synergy score with cetuximab: higher = stronger synthetic lethal interaction with the drug
Rule for the call: 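Active means a synergy score over 0.10 with any one of the three anchor drugs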
Shown is a random part of 160 reagents. Over the whole deposit, 122 (76%) got an active call. 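Most active calls come from the trametinib arm; viability under BYL719 or cetuximab treatment is not printed.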 A number with no mark means an inactive call. Reagents against one gene are numbered here. Not all columns of the deposit are shown. Not given: the amount of reagent, the time to read-out.

Which result is listed for MAPK4 (mitogen-activated protein kinase 4) #1?
synergy score with trametinib: 0.12 (active); synergy score with BYL719: 0.0915; synergy score with cetuximab: 0.0736

With MAPK4 (mitogen-activated protein kinase 4) #2, how do the results read?
synergy score with trametinib: 0.185 (active); synergy score with BYL719: -0.0666; synergy score with cetuximab: 0.0852

With MAPK4 (mitogen-activated protein kinase 4) #3, what was measured?
synergy score with trametinib: 0.319 (active); synergy score with BYL719: 0.119; synergy score with cetuximab: 0.228

What did the screen give for MAPK4 (mitogen-activated protein kinase 4) #4?
synergy score with trametinib: 0.193 (active); synergy score with BYL719: 0.0134; synergy score with cetuximab: 0.126

How did the screen score KCNH8 (potassium voltage-gated channel subfamily H member 8) #1?
synergy score with trametinib: 0.541 (active); synergy score with BYL719: 0.232; synergy score with cetuximab: 0.411

For KCNH8 (potassium voltage-gated channel subfamily H member 8) #2, how do the results read?
synergy score with trametinib: 0.289 (active); synergy score with BYL719: -0.0749; synergy score with cetuximab: 0.124

With KCNH8 (potassium voltage-gated channel subfamily H member 8) #3, what was measured?
synergy score with trametinib: 0.268 (active); synergy score with BYL719: -0.0896; synergy score with cetuximab: 0.177

With KCNH8 (potassium voltage-gated channel subfamily H member 8) #4, what does the deposit list?
synergy score with trametinib: 0.241 (active); synergy score with BYL719: -0.00925; synergy score with cetuximab: 0.116

With IRAK1 (interleukin 1 receptor associated kinase 1) #1, what does the deposit list?
synergy score with trametinib: 0.257 (active); synergy score with BYL719: 0.0342; synergy score with cetuximab: 0.0275

What did the screen give for IRAK1 (interleukin 1 receptor associated kinase 1) #2?
synergy score with trametinib: 0.151 (active); synergy score with BYL719: 0.1; synergy score with cetuximab: 0.0633

What is on record for IRAK1 (interleukin 1 receptor associated kinase 1) #3?
synergy score with trametinib: 0.0232 (active); synergy score with BYL719: -0.00385; synergy score with cetuximab: 0.101

How did the screen score IRAK1 (interleukin 1 receptor associated kinase 1) #4?
synergy score with trametinib: 0.162 (active); synergy score with BYL719: 0.219; synergy score with cetuximab: 0.107
